# This is one part of the list.
# Chains of the proteins cited; added tags and fusions are not shown. Lines headed by an entry give the natural chain unless they say otherwise; changes in a name come on top.
# UniProt P11908: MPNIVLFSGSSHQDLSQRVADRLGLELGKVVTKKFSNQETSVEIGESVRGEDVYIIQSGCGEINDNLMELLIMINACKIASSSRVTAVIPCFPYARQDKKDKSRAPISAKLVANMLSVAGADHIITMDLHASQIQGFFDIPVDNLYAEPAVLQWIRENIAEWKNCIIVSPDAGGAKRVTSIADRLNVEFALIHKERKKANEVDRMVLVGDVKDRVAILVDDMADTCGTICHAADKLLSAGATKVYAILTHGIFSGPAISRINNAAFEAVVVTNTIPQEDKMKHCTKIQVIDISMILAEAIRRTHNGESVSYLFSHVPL
# UniProt P78527, whole entry, looked up: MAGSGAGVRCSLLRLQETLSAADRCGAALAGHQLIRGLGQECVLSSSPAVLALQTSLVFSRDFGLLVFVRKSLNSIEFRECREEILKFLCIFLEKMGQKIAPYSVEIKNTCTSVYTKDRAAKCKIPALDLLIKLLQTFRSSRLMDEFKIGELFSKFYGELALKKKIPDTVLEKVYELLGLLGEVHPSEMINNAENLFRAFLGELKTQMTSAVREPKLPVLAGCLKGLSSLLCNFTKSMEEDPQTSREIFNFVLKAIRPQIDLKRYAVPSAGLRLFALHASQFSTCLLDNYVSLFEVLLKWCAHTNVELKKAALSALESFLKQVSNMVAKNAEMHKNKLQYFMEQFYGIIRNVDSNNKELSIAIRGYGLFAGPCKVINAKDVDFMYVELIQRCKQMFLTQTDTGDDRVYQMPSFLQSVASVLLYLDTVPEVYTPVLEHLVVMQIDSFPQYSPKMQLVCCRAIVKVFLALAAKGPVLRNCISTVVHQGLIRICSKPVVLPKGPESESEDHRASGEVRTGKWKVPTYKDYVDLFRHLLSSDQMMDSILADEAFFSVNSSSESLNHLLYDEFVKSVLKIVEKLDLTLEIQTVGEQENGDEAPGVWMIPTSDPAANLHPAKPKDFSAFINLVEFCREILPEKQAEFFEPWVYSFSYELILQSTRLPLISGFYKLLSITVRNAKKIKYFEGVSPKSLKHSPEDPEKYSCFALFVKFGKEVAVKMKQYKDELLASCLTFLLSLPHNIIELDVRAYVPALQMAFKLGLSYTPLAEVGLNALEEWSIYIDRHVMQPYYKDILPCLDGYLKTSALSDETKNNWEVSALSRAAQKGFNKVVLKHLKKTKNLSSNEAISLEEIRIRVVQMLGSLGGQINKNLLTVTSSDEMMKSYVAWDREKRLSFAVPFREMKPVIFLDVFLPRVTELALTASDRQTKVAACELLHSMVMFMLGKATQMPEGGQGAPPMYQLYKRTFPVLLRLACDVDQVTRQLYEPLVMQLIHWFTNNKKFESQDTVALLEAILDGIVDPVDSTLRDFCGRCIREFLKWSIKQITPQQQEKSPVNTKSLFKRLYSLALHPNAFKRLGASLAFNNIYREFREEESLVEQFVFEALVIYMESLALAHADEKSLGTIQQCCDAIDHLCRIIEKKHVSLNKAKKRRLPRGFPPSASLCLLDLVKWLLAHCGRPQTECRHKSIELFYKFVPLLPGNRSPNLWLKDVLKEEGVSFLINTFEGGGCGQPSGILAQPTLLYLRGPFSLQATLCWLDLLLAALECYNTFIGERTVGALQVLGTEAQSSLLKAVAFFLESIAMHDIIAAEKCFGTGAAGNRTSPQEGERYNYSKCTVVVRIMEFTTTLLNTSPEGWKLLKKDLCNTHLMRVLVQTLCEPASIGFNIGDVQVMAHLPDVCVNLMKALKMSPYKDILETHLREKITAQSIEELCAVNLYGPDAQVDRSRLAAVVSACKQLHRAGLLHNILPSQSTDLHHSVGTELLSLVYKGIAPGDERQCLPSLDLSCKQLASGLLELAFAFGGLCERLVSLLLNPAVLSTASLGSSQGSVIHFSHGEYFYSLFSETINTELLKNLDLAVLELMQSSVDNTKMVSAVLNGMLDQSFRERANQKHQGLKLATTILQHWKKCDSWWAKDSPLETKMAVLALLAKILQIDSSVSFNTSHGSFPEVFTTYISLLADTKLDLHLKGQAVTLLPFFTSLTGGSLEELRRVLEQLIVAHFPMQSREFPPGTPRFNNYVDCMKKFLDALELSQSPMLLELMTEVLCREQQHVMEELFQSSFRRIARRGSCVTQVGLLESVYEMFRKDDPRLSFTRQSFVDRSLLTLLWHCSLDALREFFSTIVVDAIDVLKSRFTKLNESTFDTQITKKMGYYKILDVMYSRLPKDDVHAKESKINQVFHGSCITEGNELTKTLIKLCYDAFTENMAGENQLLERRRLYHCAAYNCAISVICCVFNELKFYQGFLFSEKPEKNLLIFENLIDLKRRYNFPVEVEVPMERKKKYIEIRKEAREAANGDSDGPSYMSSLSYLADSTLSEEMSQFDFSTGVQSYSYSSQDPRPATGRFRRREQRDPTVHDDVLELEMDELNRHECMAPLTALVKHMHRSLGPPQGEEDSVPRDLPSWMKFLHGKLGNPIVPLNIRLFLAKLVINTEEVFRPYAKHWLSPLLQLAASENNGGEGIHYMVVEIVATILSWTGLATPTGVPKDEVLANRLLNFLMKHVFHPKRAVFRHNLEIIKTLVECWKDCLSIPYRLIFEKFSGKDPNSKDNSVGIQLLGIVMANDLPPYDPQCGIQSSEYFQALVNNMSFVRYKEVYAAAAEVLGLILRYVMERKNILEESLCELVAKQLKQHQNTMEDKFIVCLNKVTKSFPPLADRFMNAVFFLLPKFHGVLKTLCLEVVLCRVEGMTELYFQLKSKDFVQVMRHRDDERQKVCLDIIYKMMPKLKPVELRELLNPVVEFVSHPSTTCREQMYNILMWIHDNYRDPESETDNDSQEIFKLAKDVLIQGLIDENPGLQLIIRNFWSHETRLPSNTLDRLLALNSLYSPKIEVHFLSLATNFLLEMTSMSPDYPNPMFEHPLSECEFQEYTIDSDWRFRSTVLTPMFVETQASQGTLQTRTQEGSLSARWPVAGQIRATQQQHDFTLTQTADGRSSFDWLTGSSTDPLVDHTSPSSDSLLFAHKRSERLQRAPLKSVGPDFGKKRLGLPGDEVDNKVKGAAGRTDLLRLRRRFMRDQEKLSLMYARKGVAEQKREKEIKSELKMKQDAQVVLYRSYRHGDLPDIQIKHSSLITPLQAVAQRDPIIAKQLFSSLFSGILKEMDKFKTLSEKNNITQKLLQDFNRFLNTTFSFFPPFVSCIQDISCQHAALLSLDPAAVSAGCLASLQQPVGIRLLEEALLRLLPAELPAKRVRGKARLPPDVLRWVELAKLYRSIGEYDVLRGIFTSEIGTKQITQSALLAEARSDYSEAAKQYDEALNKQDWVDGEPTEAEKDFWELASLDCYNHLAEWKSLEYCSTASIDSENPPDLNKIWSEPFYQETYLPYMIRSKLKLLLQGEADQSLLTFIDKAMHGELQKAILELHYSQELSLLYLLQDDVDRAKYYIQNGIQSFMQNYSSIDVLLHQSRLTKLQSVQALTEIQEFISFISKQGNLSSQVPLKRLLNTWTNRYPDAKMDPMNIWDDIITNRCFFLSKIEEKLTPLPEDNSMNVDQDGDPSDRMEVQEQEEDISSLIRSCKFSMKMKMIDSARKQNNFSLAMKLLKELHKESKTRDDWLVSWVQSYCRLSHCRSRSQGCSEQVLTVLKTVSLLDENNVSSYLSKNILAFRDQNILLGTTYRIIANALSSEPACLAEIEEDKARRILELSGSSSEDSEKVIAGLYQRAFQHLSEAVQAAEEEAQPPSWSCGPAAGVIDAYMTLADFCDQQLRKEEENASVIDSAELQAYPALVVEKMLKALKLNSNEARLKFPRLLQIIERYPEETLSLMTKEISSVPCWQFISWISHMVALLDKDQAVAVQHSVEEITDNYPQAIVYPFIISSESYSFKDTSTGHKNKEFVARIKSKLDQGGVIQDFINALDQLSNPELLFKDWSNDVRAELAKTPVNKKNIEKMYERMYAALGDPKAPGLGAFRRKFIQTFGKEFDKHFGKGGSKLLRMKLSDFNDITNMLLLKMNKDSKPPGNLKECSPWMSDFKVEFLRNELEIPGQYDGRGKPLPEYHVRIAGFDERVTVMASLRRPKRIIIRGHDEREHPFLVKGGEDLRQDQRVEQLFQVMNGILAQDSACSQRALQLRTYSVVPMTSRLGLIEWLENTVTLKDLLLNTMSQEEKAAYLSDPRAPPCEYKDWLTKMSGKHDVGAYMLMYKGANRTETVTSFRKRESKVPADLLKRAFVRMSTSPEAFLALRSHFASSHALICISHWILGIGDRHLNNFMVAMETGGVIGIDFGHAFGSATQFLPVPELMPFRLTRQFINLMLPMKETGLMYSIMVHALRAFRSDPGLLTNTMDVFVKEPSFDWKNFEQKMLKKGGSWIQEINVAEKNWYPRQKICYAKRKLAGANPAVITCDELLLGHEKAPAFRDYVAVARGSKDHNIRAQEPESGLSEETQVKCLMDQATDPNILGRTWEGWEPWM
# UniProt O94906: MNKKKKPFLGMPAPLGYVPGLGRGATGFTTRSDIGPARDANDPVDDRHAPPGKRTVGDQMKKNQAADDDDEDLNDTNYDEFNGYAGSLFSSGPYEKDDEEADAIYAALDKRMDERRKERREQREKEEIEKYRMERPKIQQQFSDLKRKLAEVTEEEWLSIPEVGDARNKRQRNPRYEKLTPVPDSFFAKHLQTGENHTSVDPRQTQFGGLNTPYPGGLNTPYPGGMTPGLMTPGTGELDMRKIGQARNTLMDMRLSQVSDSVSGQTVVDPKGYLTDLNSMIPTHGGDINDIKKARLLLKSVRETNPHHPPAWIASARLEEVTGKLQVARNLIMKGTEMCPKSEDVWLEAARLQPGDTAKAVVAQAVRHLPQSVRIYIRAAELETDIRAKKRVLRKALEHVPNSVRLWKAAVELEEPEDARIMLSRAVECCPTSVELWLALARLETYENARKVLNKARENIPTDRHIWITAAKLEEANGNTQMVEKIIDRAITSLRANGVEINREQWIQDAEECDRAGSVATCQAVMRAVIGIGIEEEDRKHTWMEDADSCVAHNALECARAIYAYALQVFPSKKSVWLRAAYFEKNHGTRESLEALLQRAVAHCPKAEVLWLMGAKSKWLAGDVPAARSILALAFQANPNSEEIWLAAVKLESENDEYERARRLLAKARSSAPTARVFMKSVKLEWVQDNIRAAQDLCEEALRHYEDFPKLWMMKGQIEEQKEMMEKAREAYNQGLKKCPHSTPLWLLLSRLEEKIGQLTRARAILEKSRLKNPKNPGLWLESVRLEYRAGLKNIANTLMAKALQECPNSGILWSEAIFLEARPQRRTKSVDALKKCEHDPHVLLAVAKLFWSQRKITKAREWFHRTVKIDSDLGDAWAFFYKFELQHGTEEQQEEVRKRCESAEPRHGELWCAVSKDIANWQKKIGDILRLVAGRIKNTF
# UniProt Q6P2P2: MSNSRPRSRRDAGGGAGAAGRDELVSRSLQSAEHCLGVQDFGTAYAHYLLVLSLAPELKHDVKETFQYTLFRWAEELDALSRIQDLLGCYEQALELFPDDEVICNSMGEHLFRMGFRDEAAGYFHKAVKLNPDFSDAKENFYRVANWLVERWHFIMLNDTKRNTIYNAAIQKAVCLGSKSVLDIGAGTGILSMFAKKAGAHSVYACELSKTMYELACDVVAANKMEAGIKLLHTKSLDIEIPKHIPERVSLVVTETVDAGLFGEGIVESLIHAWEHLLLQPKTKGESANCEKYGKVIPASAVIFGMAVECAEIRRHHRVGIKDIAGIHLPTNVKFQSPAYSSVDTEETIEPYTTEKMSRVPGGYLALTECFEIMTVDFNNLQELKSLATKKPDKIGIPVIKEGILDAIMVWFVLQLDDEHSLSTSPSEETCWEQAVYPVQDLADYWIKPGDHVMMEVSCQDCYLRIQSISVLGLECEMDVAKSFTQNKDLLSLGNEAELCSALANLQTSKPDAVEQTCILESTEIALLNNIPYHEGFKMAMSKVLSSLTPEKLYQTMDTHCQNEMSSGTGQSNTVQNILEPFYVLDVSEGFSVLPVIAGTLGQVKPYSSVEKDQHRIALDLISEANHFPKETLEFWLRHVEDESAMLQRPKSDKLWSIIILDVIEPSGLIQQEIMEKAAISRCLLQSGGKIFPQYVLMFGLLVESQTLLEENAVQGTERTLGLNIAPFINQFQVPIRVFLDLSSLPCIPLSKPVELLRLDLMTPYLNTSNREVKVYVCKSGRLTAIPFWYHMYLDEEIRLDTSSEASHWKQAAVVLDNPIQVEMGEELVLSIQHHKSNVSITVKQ
# UniProt Q8NAV1: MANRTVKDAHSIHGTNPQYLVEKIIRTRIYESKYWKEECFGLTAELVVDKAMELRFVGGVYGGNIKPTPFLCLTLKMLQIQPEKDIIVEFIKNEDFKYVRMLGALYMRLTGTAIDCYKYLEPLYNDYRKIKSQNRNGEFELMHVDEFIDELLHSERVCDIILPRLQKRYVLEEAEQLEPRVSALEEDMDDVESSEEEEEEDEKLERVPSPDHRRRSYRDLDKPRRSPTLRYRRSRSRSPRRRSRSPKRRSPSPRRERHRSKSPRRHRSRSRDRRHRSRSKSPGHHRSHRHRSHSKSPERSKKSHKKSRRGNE
# Compound: Cc1cc(ccc1-c1ccccc1)C(=O)N1CCCN(CC1)C(=O)CCl [compound 10]
# Test: probe-labelled cysteine peptide fold change vs DMSO (competition) (log2 fold change); higher = less target engagement (more negative = stronger competition)
# Conditions: 50 µM; THP-1; incubation time: 4 h
# 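Note: competitive profiling in live THP-1 cells: cysteine peptides tagged with an iodoacetamide desthiobiotin (IA-DTB) probe, intensity after compound treatment relative to DMSO-treated cells.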
row,Target,probe-labelled cysteine peptide fold change
1,PRPS2_P11908_165_NCIIVSPDAGGAKR (UniProt P11908),-0.113
2,PRKDC_P78527_3281_DDWLVSWVQSYCR (UniProt P78527),-0.379
3,PRKCB_P05771_53_QPTFCSHCTDFIWGFGK (UniProt P05771),-0.115
4,PRMT3_O60678_264_VVLDVGCGTGILSMFAAK (UniProt O60678),0.0054
5,PSMA1_P25786_182_HMSEFMECNLNELVK (UniProt P25786),0.142
6,PRPF19_Q9UMS4_114_QELSHALYQHDAACR (UniProt Q9UMS4),0.15
7,PRKDC_P78527_478_NCISTVVHQGLIR (UniProt P78527),0.213
8,PRKDC_P78527_223_LPVLAGCLK (UniProt P78527),-0.0516
9,PRPF6_O94906_513_ANGVEINREQWIQDAEECDR (UniProt O94906),-0.497
10,PRKDC_P78527_491_ICSKPVVLPK (UniProt P78527),-0.0574
11,PRMT7_Q9NVM4_639+640_RPGQSHAAVLWMEYHLTPECTLSTGLLEPADPEGGCCWNPHCK (UniProt Q9NVM4),-0.377
12,PRMT9_Q6P2P2_476_IQSISVLGLECEMDVAK (UniProt Q6P2P2),0.065
13,PRKDC_P78527_1742_FNNYVDCMK (UniProt P78527),-0.0715
14,PRKDC_P78527_795_DILPCLDGYLK (UniProt P78527),0.159
15,PRPF6_O94906_739_KCPHSTPLWLLLSR (UniProt O94906),-0.0418
16,PRKDC_P78527_1791_RGSCVTQVGLLESVYEMFR (UniProt P78527),-0.151
17,PRKDC_P78527_1183_WLLAHCGRPQTECR (UniProt P78527),0.169
18,PRIM1_P49642_170_GVHCWVCDESVR (UniProt P49642),0.421
19,PRPF19_Q9UMS4_351+355_VTDETSGCSLTCAQFHPDGLIFGTGTMDSQIK (UniProt Q9UMS4),0.0895
20,PRPF38A_Q8NAV1_158_VCDIILPR (UniProt Q8NAV1),-0.0281
21,PRKCI_P41743_507_LGCHPQTGFADIQGHPFFR (UniProt P41743),0.104
22,PRPF6_O94906_807_ALQECPNSGILWSEAIFLEAR (UniProt O94906),0.0886
